Measurements published in PubChem BioAssay AID2685 (National Center for Advancing Translational Sciences (NCATS), 2010).
Screen size: about 320,000 compounds; about 2,100 (0.66%) were called active. The inconclusive results got no clear call from the source; some entries with a clear call stand among them for comparison. Calls come from the whole dose curve; as a rule, active = well fitted inhibition curve with a large enough effect in the signal ratio, with a control signal flat (not every such curve was filed as active); inconclusive = small, poorly fitted or top-dose-only effect, or effect the other way, or a change in a side signal; inactive = flat fitted curve, though single readings scatter; the % refers to the signal ratio. Potencies of inconclusive entries are doubtful fits and often do not repeat.

test: qHTS Assay for Lipid Storage Modulators in Drosophila S3 Cells; settings: BODIPY lipid droplet fluorescence, 18-24 h, cells fed with added oleic acid; lipid storage change, negative = inhibition: at 46.1 µM (top of the series) unless noted
Method in brief: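 Laser-scanning cytometry quantifies lipid droplet accumulation (500–530 nm total intensity; droplet/cell object ratio) in oleic acid-fed (400 uM added) Drosophila S3 cells treated with a concentration series. 20 uM Triacsin C defined 100% inhibition.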
% is set by controls: 0 for no effect and ±100 for the full control effect; potency is the fitted concentration of half-maximal effect.

Compound | lipid storage change, negative = inhibition | Potency
CSc1nc2c(c(=O)[nH]1)C(c1ccccc1Cl)CC(=O)N2 (stereo not given) | inconclusive: -55.6% | 
O=C(c1nc2ccccc2[nH]1)c1ccccc1[N+](=O)[O-] | inconclusive: 9.34% | 
COc1ccc(NC(C)=O)cc1NC(=O)CN1CCN(S(=O)(=O)c2ccc(C(C)C)cc2)CC1 | inconclusive: -47.2% | 
CC(=O)Nc1ccc(S(=O)(=O)N2CCCN(S(=O)(=O)c3ccc(NC(C)=O)cc3)CC2)cc1 | inactive | 
NS(=O)(=O)OCCCc1ccccc1 |  | inconclusive: 7310 nM [activator, partial curve]
O=C(COC(=O)CCc1nc2ccccc2c(=O)[nH]1)Nc1ccc(N2CCOCC2)cc1 |  | inconclusive: 29100 nM [falling, single point]
COc1ccc(N=C(N)N=C(N)N)c(OC)c1 | inconclusive: 20.4% | 
O=C(O)c1cccnc1SCC(=O)N1CCCCCC1 | inconclusive: 23.3% | 
CC1CC(C)CN(S(=O)(=O)c2ccc(C(=O)N3CCOCC3)cc2)C1 (stereo not given) | inconclusive: 4.9% | 
O=C(O)/C=C/C(=O)NCc1ccccc1 | inconclusive: -0.53% | 
N#CCc1nn(-c2ccc(Cl)cc2)c(N)c1C#N |  | inconclusive: 8200 nM [activator, partial curve, poor fit]
O=C(CNC(=O)c1ccc(Cl)cc1Cl)Nc1ccc(F)cc1 | inconclusive: 23.3% | 
O=C(NNS(=O)(=O)c1ccccc1)c1cc2cc3ccccc3nc2s1 | inconclusive: -0.46% | 
COc1ccc(-n2cnc3cc(C(=O)NCCN4CCOCC4)ccc32)cc1 | inconclusive: -18.2% | 
Cc1ccc2occ(/C=N/NC(=O)c3ccccc3O)c(=O)c2c1 | inactive | 
O=C(c1nn(-c2ccccc2)c(=O)c2ccccc12)N1CCN(c2ncccn2)CC1 | inconclusive: -15.1% [at 9.22 µM] | 
O=[N+]([O-])c1ccc(-c2ccc(/C=N/Nc3nc(N4CCCC4)nc(N4CCCC4)n3)o2)cc1 | inactive | 
CCS(=O)c1ccccc1C(=O)OCC(=O)Nc1cccc(S(=O)(=O)N2CCCCC2)c1 (stereo not given) |  | inconclusive: 51.7 nM [falling, full curve, poor fit]
CCN(CC)CCNC(=O)CNC(=S)N(CCCN1CCOCC1)Cc1cccs1 |  | inconclusive: 14600 nM [falling, partial curve]
CN1C(=O)N(CC(=O)NCc2ccc(Cl)cc2Cl)C(=O)C12CCCCC2 |  | inconclusive: 6510 nM [activator, single point]
Cc1ccc(OCC(=O)c2cc(C)n(CC(F)(F)F)c2C)c([N+](=O)[O-])n1 | inconclusive: 7.82% [at 9.22 µM] | 
Cn1nc(-c2ccc(Cl)cc2)c2cc(C(=O)N3CCOCC3)sc21 |  | inconclusive: 5.2 nM [activator, full curve, poor fit]
Cc1cccc(OCC(=O)NNC(=O)Cn2c(=O)cnc3ccccc32)c1 | inconclusive: 12.9% | 
O=C(OCc1nc2ccccc2s1)C1CCN(C2=NS(=O)(=O)c3ccccc32)CC1 |  | inconclusive: 3260 nM [falling, single point]
COc1ccc(NC(=S)/N=C(\N)Nc2nc(C)c3ccccc3n2)cc1 | inconclusive: 20.1% | 

Compound | lipid storage change, negative = inhibition | Potency
CCC1=Nc2ccccc2NC2=C1C(=O)CCC2 |  | inconclusive: 1460 nM [activator, full curve]
C[C@@H](NC(=O)c1[nH]cnc1C(=O)Nc1ccc(Cl)cc1)c1ccccc1 | inconclusive: 3.78% | 
COc1nc(-c2cnccn2)sc1C | inconclusive: 47.2% | 
CSc1ccc(CN2CCc3c([nH]c4ccccc34)C2)cc1 | inconclusive: 41.7% | 
CCOC(=O)c1ccc(NC(=O)CCN2C(=O)C3CC=CCC3C2=O)cc1 (stereo not given) |  | inconclusive: 259 nM [falling, full curve, poor fit]
Cc1ccc(NC(=S)N(N)CCO)cc1 | inconclusive: -30.7% | 
CCOc1ccccc1NC(=O)C(OC(=O)c1ccc(N(C)C)cc1)c1ccccc1 (stereo not given) | inconclusive: -48.1% | 
NC(=O)C1(N2CCCCC2)CCN(C(=O)c2ccccc2)CC1 |  | inconclusive: 1840 nM [activator, partial curve]
C/C(=N\Nc1nc(-c2cc(C)ccc2C)cs1)c1cc2ccccc2oc1=O |  | inconclusive: 326 nM [activator, partial curve]
Cc1ccc(CNC(=O)[C@H](Cc2ccccc2)NC(=O)c2ccco2)cc1 | inactive | 
COc1ccc(OCCCC(=O)N(CCC2=CCCCC2)c2c(N)n(Cc3ccccc3)c(=O)[nH]c2=O)cc1 |  | inconclusive: 3660 nM [falling, full curve]
Cc1ccc(S(=O)(=O)Nc2ccc3c(c2)c2c(n3S(=O)(=O)c3ccc(C)cc3)CCCC2=O)cc1 | inconclusive: 40.6% | 
CC(C)C(CCN1C(=O)CCC1=O)C1CCOC(C)(C)C1 (stereo not given) | inconclusive: 5.97% | 
CCN(CC)S(=O)(=O)c1cccc(C(=O)OCC(=O)NC(C)c2ccccc2)c1 (stereo not given) |  | inconclusive: 920 nM [activator, full curve, poor fit]
NNC(=O)c1csc(-c2ccccc2)n1 |  | inconclusive: 6510 nM [falling, single point]
CN(Cc1nc2ccccc2n1C)C(=O)c1cccs1 | inconclusive: 12.7% | 
O=C(c1ccc(CNc2c(N3CCCC3)c(=O)c2=O)cc1)N1CC=C(c2ccccc2)CC1 | inconclusive: 22% | 
CC(C)CC(NC(=O)C1CCC(C)CC1)C(=O)Nc1ccc2c(c1)OCCO2 (stereo not given) | inconclusive: -13.5% [at 9.22 µM] | 
CN1C(=S)SC(N(O)C(=O)Nc2cccc3ccccc23)C1(C)C (stereo not given) | inconclusive: -37.4% | 
Cc1ccc(C(=O)NCC(=O)OC(C)C(=O)Nc2ccc(N(C)C)cc2)cc1C (stereo not given) |  | inconclusive: 6510 nM [falling, single point]
CCOc1ccc(-c2cc(C(=O)OC)[nH]n2)cc1 | inconclusive: 17.5% | 
N#Cc1c(N)n(-c2ccccc2N)c2nc3ccccc3nc12 |  | inconclusive: 3260 nM [falling, full curve, poor fit]
COC(=O)c1cc(S(=O)(=O)N2CCCCC2C)c[nH]1 (stereo not given) | inconclusive: -6.28% | 
COc1ccccc1CC(=O)Nc1ccc(S(=O)(=O)N2CCOCC2)cc1 | inconclusive: -18.2% | 
O=C(Nc1nc2cc3c(cc2s1)OCO3)c1cccc(N2C(=O)CCC2=O)c1 | inconclusive: -4.82% | 

Compound | lipid storage change, negative = inhibition | Potency
Cc1cccnc1NC(=O)c1cccc(S(=O)(=O)NCc2ccccc2)c1 | inconclusive | 
CCCN(CC(=O)Nc1ccccc1C)C(=O)C1CCN(C(=O)Nc2ccccc2)CC1 | inconclusive: -9.77% | 
COc1cccc(C(=O)O[C@@H]2[C@H](Cc3ccccc3)NS(=O)(=O)[C@H]3C[C@@H]4C=C[C@]23O4)c1 |  | inconclusive: 920 nM [activator, full curve, poor fit]
O=C(Nc1cccc(N=Cc2cc(Cl)cc(Br)c2O)c1)c1ccco1 | inconclusive: -12.8% | 
Cc1cccc(CSc2nc3c(c(-c4cccs4)c2C#N)CN(C)CC3)c1 |  | inconclusive: 2590 nM [activator, full curve]
COc1ccc(CCN(C(=O)COc2ccccc2)c2nc(-c3ccccc3)cs2)cc1OC |  | inconclusive: 8200 nM [falling, partial curve]
CC(C)c1nc(SCC(=O)N2c3ccccc3CC2C)c2ccccc2n1 (stereo not given) |  | inconclusive: 517 nM [rising, full curve]
CCCCCOC(=O)C(C)c1c(C)[nH]c(=S)[nH]c1=O (stereo not given) | inconclusive: -43.3% | 
COc1cccc(C(=O)Nc2nnc(SCC(=O)Nc3ccc(NC(C)=O)cc3)s2)c1 | inconclusive: -15.6% | 
COC(=O)c1ccc2c(=O)n(CCN3CCOCC3)c(SCC(=O)Nc3cccc(OC)c3)nc2c1 | inconclusive: 196% | 
CCC1(c2ccc(F)cc2)NC(=O)N(CC(=O)N2c3ccccc3NC(=O)CC2C)C1=O (stereo not given) | inconclusive: 10.8% | 
CCOC(=O)c1cnc2c(ccc3ccccc32)c1Cl |  | inconclusive: 58 nM [activator, full curve, poor fit]
CSc1ncc(C(=O)NCCCc2ccccc2)c(C)n1 | inconclusive: -3.28% | 
COC(=O)c1c(C)[nH]c(C(=O)CSc2ncnc3sc(-c4ccccc4)cc23)c1C | inconclusive: -5.15% | 
CNc1ccc(/C=C/C(=O)c2ccc(C)cc2)cc1[N+](=O)[O-] |  | inconclusive: 29100 nM [falling, single point]
CN(NS(=O)(=O)c1ccc(Cl)cc1)c1ncc(C(F)(F)F)cc1Cl | inconclusive: -1.14% | 
O=C(CCN1C(=O)C2CC=CCC2C1=O)Nc1ccc(S(=O)(=O)N2CCCCC2)cc1 (stereo not given) | inconclusive | 
CCOC(=O)N1CCN(C(=O)c2cc(-n3cnnc3)ccc2Cl)CC1 | inconclusive: -20.5% | 
Cc1c(Cl)c(=O)oc2cc(OCC(=O)NCc3cccs3)ccc12 |  | inconclusive: 10.3 nM [activator, full curve, poor fit]
COc1ccccc1/C=C1\SC(=S)N(C(C(=O)O)c2ccccc2)C1=O (stereo not given) | inconclusive: 33.1% | 
O=C1NC(C(F)(F)F)(C(F)(F)F)N=C2SC=CN12 | inconclusive: 20% | 
Cc1cc(Nc2ccccc2)n(CCC#N)n1 | inconclusive: 50.1% | 
O=C(Cc1ccccc1)NCc1n[nH]c(=S)n1-c1ccc(Br)cc1 | inactive | 
CC(C)(C)c1ccc(C(=O)Nc2ccc(O)c3c(=O)cc(-c4ccccc4Cl)oc23)cc1 |  | inconclusive: 1840 nM [cytotoxic, full curve, poor fit]
CCCc1cc(C(=O)NC(C)C2CCCO2)cs1 (stereo not given) |  | inconclusive: 4610 nM [falling, single point]

Retrieved by structure from the entries so far (5):
Compound | lipid storage change, negative = inhibition | Potency
CCOC(=O)N1CCN(C(=O)c2cc(-n3cnnc3)ccc2Cl)CC1 | inconclusive: -20.5% | 
CCCCCOC(=O)C(C)c1c(C)[nH]c(=S)[nH]c1=O (stereo not given) | inconclusive: -43.3% | 
COc1ccc(CCN(C(=O)COc2ccccc2)c2nc(-c3ccccc3)cs2)cc1OC |  | inconclusive: 8200 nM [falling, partial curve]
CCOC(=O)c1cnc2c(ccc3ccccc32)c1Cl |  | inconclusive: 58 nM [activator, full curve, poor fit]
CNc1ccc(/C=C/C(=O)c2ccc(C)cc2)cc1[N+](=O)[O-] |  | inconclusive: 29100 nM [falling, single point]
